Measured values reported in PubChem BioAssay AID330 (DTP/NCI, 2004).
The list shows only some results of the screen, not a fair sample: it gathers tests that were run many times, whatever their T/C, doses with no T/C, and many T/C values between a quarter and a half above the control. Further doses and runs are listed elsewhere. T/C is the treated group as % of the vehicle group. Some doses have a count of surviving animals in place of a T/C: the source holds a T/C of zero for them, seemingly a mark for toxic or unscored doses. Some survivor counts are full or nearly so, which does not show that the dose was tolerated: the source hardly ever lists a survival T/C far under the control, and the zero likely stands for such cases as well. Counts of survivors are from the toxicity check (mostly the fifth day) where no day follows; animals may have died later. Schedule codes are those of the source, read here as Q, the interval in days (D) or hours (H), X, the number of doses. Some entries hold several experiments; their values stand side by side, smallest first. Counts like (3×) say how often a value occurs here. Where survival is the endpoint, this PubChem deposit counts one and a half times the control or more as active, and values a quarter to a half above the control carry no call in these data; other NCI protocols may use other cut-offs.

Test system: P388 leukemia ip, CD2F1 mice, survival T/C
Assay: NCI In Vivo Anticancer Drug Screen. Data for tumor model P388 Leukemia (intraperitoneal) in CD2F1 (CDF1) mice
Conditions: T/C endpoint: median survival time, higher T/C = longer survival
[1] = dose: 200.0 mg/kg/injection, schedule: Q01DX009 (ip), vehicle: saline with Tween-80
[2] = dose: 400.0 mg/kg/injection, schedule: Q01DX009 (ip), vehicle: saline with Tween-80
[3] = dose: 100.0 mg/kg/injection, schedule: Q01DX005 (ip), vehicle: Klucel (hydroxypropylcellulose) (HPC)
[4] = dose: 200.0 mg/kg/injection, schedule: Q01DX005 (ip), vehicle: Klucel (hydroxypropylcellulose) (HPC)
[5] = dose: 240.0 mg/kg/injection, schedule: Q01DX005 (ip), vehicle: saline with Tween-80
[6] = dose: 50.0 mg/kg/injection, schedule: Q01DX009 (ip), vehicle: saline with Tween-80
[7] = dose: 200.0 mg/kg/injection, schedule: Q01DX005 (ip), vehicle: saline with Tween-80
[8] = dose: 25.0 mg/kg/injection, schedule: Q04DX003 (ip), vehicle: saline
[9] = dose: 25.0 mg/kg/injection, schedule: Q01DX009 (ip), vehicle: water
[10] = dose: 100.0 mg/kg/injection, schedule: Q01DX009 (ip), vehicle: saline
[11] = dose: 200.0 mg/kg/injection, schedule: Q01DX009 (ip), vehicle: saline

CCCC(C(CC)CN(C)C)N(C)C (stereo unspecified)
survivor count [1]: 0 of 6
survivor count [2]: 0 of 6

CSc1nc(N)c(C(=O)c2sc(SC)nc2N)s1
survivor count [3]: 6 of 6
survivor count [4]: 6 of 6

O=C1NN2CCN=C2c2cccnc21
survivor count (dose: 30.0 mg/kg/injection, schedule: Q01DX005 (ip), vehicle: saline with Tween-80): 3 of 6
survivor count (dose: 60.0 mg/kg/injection, schedule: Q01DX005 (ip), vehicle: saline with Tween-80): 0 of 6
survivor count (dose: 120.0 mg/kg/injection, schedule: Q01DX005 (ip), vehicle: saline with Tween-80): 0 of 6
survivor count [5]: 0 of 6

[Br][Pb]([Br])([c]1ccccc1)[c]1ccccc1
T/C [6]: 131 % of control
survivor count [1]: 6 of 6

CCCCOc1cccc2c(NCCCNCCCNc3c4ccccc4nc4c(OCCCC)cccc34)c3ccccc3nc12
survivor count (dose: 5.0 mg/kg/injection, schedule: Q01DX009 (ip), vehicle: other): 5 of 6
survivor count (dose: 10.0 mg/kg/injection, schedule: Q01DX009 (ip), vehicle: other): 3 of 6 and 5 of 6
survivor count (dose: 20.0 mg/kg/injection, schedule: Q01DX009 (ip), vehicle: other): 1 of 6
survivor count (dose: 40.0 mg/kg/injection, schedule: Q01DX009 (ip), vehicle: other): 0 of 6

Cc1cc(Nc2ccc(N(CCCl)CCCl)cc2)cc(C)c1O
T/C (dose: 6.25 mg/kg/injection, schedule: Q01DX009 (ip), vehicle: saline with Tween-80): 145 % of control
survivor count [6]: 6 of 6
survivor count (dose: 100.0 mg/kg/injection, schedule: Q01DX009 (ip), vehicle: saline with Tween-80): 2 of 6
survivor count [1]: 0 of 6

COc1ccc(S(=O)(=O)N/N=C/c2ncc[nH]2)cc1
survivor count [7]: 0 of 6

CN(C)c1ccc2c(SCC(=O)OCC(=O)[C@@]3(O)CC[C@H]4[C@@H]5CCC6=CC(=O)C=C[C@]6(C)[C@H]5C(=O)C[C@@]43C)c3ccc(N(C)C)cc3nc2c1
T/C (dose: 50.0 mg/kg/injection, schedule: Q01DX005 (ip), vehicle: Klucel (hydroxypropylcellulose) (HPC)): 125 and 126 % of control
T/C [3]: 126 and 135 % of control
T/C [4]: 145 % of control
survivor count [4]: 3 of 6

O=C(O)C1Cc2nc[nH]c2CN1CO (stereo unspecified)
T/C [1]: 127 and 135 % of control
T/C [2]: 132 % of control

Nc1nc(=S)c2[nH]c(N=Nc3ccc(S(=O)(=O)O)cc3)nc2[nH]1
T/C (dose: 12.5 mg/kg/injection, schedule: Q04DX003 (ip), vehicle: saline): 133 % of control
T/C [8]: 136 % of control
T/C (dose: 50.0 mg/kg/injection, schedule: Q04DX003 (ip), vehicle: saline): 133 % of control

CCOP(=S)(Nc1ccc(F)cc1F)OCC
survivor count (dose: 400.0 mg/kg/injection, schedule: Q04DX002 (ip), vehicle: saline with Tween-80): 2 of 6

O=C([CH-]C(=O)C(F)(F)F)c1ccccc1.O=C([CH-]C(=O)C(F)(F)F)c1ccccc1.O=C([CH-]C(=O)C(F)(F)F)c1ccccc1.O=C([CH-]C(=O)C(F)(F)F)c1ccccc1.[Eu+3].c1ccncc1
T/C (dose: 200.0 mg/kg/injection, schedule: Q01DX009 (ip), vehicle: Klucel (hydroxypropylcellulose) (HPC)): 127 % of control

O=C1c2ccccc2C(=O)c2c(NCCN3CCNCC3)ccc(NCCN3CCNCC3)c21
T/C [9]: 134 % of control
T/C (dose: 32.0 mg/kg/injection, schedule: Q01DX009 (ip), vehicle: acid diluted with saline): 126 % of control
survivor count (dose: 64.0 mg/kg/injection, schedule: Q01DX009 (ip), vehicle: acid diluted with saline): 3 of 8
survivor count (dose: 100.0 mg/kg/injection, schedule: Q01DX009 (ip), vehicle: water): 0 of 6
survivor count (dose: 200.0 mg/kg/injection, schedule: Q01DX009 (ip), vehicle: water): 0 of 6
survivor count (dose: 400.0 mg/kg/injection, schedule: Q01DX009 (ip), vehicle: water): 0 of 6

COc1cc2c(cc1O)CCCCC2O (stereo unspecified)
survivor count (dose: 25.0 mg/kg/injection, schedule: Q01DX009 (ip), vehicle: DMSO): 6 of 6
survivor count (dose: 50.0 mg/kg/injection, schedule: Q01DX009 (ip), vehicle: DMSO): 6 of 6
survivor count (dose: 100.0 mg/kg/injection, schedule: Q01DX009 (ip), vehicle: DMSO): 6 of 6
survivor count (dose: 200.0 mg/kg/injection, schedule: Q01DX009 (ip), vehicle: DMSO): 3 of 6
survivor count (dose: 400.0 mg/kg/injection, schedule: Q01DX009 (ip), vehicle: DMSO): 1 of 6

CC1(C)COC(CC2CCCCC2)=N1
survivor count [1]: 3 of 6

CC(=O)/C=C(\C)Nc1ccccc1
survivor count [10]: 5 of 6

CCN(CCNc1ccc(C)c2sc3ccccc3c(=O)c12)CC(C)(C)O
T/C (dose: 100.0 mg/kg/injection, schedule: Q04DX003 (ip), vehicle: saline): 131 % of control
T/C (dose: 200.0 mg/kg/injection, schedule: Q04DX003 (ip), vehicle: saline): 140 % of control
survivor count (dose: 400.0 mg/kg/injection, schedule: Q04DX003 (ip), vehicle: saline): 5 of 6

CN1C(=O)C(=CN(C)c2ccccc2)C(=O)N(C)C1=O
survivor count (dose: 200.0 mg/kg/injection, schedule: Q04DX003 (ip), vehicle: saline with Tween-80): 3 of 6
survivor count (dose: 400.0 mg/kg/injection, schedule: Q04DX003 (ip), vehicle: saline with Tween-80): 0 of 6

Cc1ccc(S(=O)(=O)N(Cc2ccc(Cl)cc2)S(=O)(=O)c2ccc(C)cc2)cc1
survivor count (dose: 50.0 mg/kg/injection, schedule: Q01DX009 (ip), vehicle: Klucel (hydroxypropylcellulose) (HPC)): 6 of 6
survivor count (dose: 100.0 mg/kg/injection, schedule: Q01DX009 (ip), vehicle: Klucel (hydroxypropylcellulose) (HPC)): 6 of 6

CN=C/C(C(C)=O)=C(\C)O
survivor count [11]: 0 of 6

CN(NC(=O)CC(=O)NN(C)C(=S)c1ccccc1)C(=S)c1ccccc1
survivor count (dose: 100.0 mg/kg/injection, schedule: Q01DX009 (ip), vehicle: gum acacia): 6 of 6

Cn1c(CN(Cc2nc3ccccc3n2C)Cc2nc3ccccc3n2C)nc2ccccc21
T/C (dose: 50.0 mg/kg/injection, schedule: Q01DX005 (ip), vehicle: saline with Tween-80): 128 % of control
survivor count (dose: 100.0 mg/kg/injection, schedule: Q01DX005 (ip), vehicle: saline with Tween-80): 5 of 6 (2×) and 6 of 6
survivor count [7]: 0 of 6

CN1CC(O)C2=CC(=O)C(=O)C(I)=C21 (stereo unspecified)
survivor count [3]: 3 of 6
survivor count (dose: 120.0 mg/kg/injection, schedule: Q01DX005 (ip), vehicle: saline + Tween-80 + alcohol): 6 of 6
survivor count [4]: 2 of 6
survivor count (dose: 400.0 mg/kg/injection, schedule: Q01DX005 (ip), vehicle: Klucel (hydroxypropylcellulose) (HPC)): 0 of 6

C=CC(=C)CCC=C(C)C
survivor count [2]: 3 of 6

O=NNc1ncc(Cl)cc1Cl
T/C [9]: 128 % of control
T/C (dose: 50.0 mg/kg/injection, schedule: Q01DX009 (ip), vehicle: water): 145 % of control

O=N[O-].O=N[O-].[NH2-].[NH2-].[NH2-].[NH2-].[Ni]
survivor count (dose: 25.0 mg/kg/injection, schedule: Q01DX009 (ip), vehicle: saline): 3 of 6
survivor count (dose: 50.0 mg/kg/injection, schedule: Q01DX009 (ip), vehicle: saline): 3 of 6
survivor count [10]: 0 of 6
survivor count [11]: 0 of 6

CC(=O)c1c[nH]c(=O)c2cc3c(cc12)OCO3
survivor count [5]: 6 of 6

CN(C)C(=S)S/C=C\C(=O)O
survivor count (dose: 50.0 mg/kg/injection, schedule: Q04DX003 (ip), vehicle: Klucel (hydroxypropylcellulose) (HPC)): 6 of 6
survivor count (dose: 100.0 mg/kg/injection, schedule: Q04DX003 (ip), vehicle: Klucel (hydroxypropylcellulose) (HPC)): 5 of 6
survivor count (dose: 200.0 mg/kg/injection, schedule: Q04DX003 (ip), vehicle: Klucel (hydroxypropylcellulose) (HPC)): 6 of 6

CC1CN1P(=O)(N1CC1C)N1CC1C (stereo unspecified)
T/C [8]: 136 % of control
